The values below come from publication PMC8947033.

Protein sequences, listed by entry. Tags and fused reporters are not part of them.
UniProt Q9UKV8: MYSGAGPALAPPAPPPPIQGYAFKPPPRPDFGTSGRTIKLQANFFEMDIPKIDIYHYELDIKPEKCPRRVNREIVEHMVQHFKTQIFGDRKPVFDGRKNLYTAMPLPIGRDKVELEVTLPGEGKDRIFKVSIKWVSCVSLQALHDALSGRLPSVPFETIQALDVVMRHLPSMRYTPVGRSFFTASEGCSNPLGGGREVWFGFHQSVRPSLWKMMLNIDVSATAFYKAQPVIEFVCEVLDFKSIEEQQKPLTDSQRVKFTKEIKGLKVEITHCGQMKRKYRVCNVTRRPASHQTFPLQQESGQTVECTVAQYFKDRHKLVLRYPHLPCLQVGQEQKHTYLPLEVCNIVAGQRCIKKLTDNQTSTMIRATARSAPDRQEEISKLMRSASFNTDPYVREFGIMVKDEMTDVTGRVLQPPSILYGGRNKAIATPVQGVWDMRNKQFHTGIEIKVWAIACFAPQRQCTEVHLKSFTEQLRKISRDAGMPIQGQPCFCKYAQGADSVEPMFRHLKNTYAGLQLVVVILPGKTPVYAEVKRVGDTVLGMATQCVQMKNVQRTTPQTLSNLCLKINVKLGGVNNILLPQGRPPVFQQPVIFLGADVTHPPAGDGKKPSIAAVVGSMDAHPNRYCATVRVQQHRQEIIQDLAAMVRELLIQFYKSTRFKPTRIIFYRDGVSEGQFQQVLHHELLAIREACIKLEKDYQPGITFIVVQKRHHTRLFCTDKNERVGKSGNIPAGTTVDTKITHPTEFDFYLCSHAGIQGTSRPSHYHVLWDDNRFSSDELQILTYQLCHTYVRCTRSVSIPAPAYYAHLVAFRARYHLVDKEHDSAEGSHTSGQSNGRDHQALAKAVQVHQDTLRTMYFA

No constants are given. Whether binding was seen depends on the method and setting. Binding seen in cells or lysates may run through a third protein. Here binding means that the protein was enriched with, or labelled near, the bait; the list need not be complete.

The test has as its target FLAG-hAGO2 (human Argonaute2) (human) (UniProt Q9UKV8). In words: affinity purification with mass spectrometry; anti-FLAG M2 agarose IP from lysates of SH-SY5Y cells stably expressing FLAG-hAGO2 or FLAG vector (0.5% NP40, 150 mM KCl lysis buffer, 4 h at 4 °C); elution with FLAG peptide; SDS-PAGE, Coomassie bands excised and identified by LC-MS/MS.

B1: FKBP5 (protein, UniProt Q13451 1-457)
chain: MTTDEGAKNNEESPTATVAEQGEDITSKKDRGVLKIVKRVGNGEETPMIGDKVYVHYKGKLSNGKKFDSSHDRNEPFVFSLGKGQVIKAWDIGVATMKKGEICHLLCKPEYAYGSAGSLPKIPSNATLFFEIELLDFKGEDLFEDGGIIRRTKRKGEGYSNPNEGATVEIHLEGRCGGRMFDCRDVAFTVGEGEDHDIPIGIDKALEKMQREEQCILYLGPRYGFGEAGKPKFGIEPNAELIYEVTLKSFEKAKESWEMDTKEKLEQAAIVKEKGTVYFKGGKYMQAVIQYGKIVSWLEMEYGLSEKESKASESFLLAAFLNLAMCYLKLREYTKAVECCDKALGLDSANEKGLYRRGEAQLLMNEFESAKGDFEKVLEVNPQNKAARLQISMCQKKAKEHNERDRRIYANMFKKFAEQDAKEEANKAMGKKTSEGVTNEKGTDSQAMEEEKPEGHV
As to B1, the binding entry is given as “binds”.
